# Source: paper PMC4890047
# No constants are given. Whether binding was seen depends on the method and setting. In cells and extracts the contact can be indirect. A result given as binding can be weak or reduced; the word gives no strength.
# B1: Cdc37 expressed from pCI-neo-Cdc37 (protein, UniProt Q61081 1-379)
# chain: MVDYSVWDHIEVSDDEDETHPNIDTASLFRWRHQARVERMEQFQKEKEELDRGCRECKRKVAECQRKLKELEVAESDGQVELERLRAEAQQLRKEERSWEQKLEDMRKKEKNMPWNVDTLSKDGFSKSMVNTKPEKAEEDSEEAREQKHKTFVEKYEKQIKHFGMLHRWDDSQKYLSDNVHLVCEETANYLVIWCIDLEVEEKCALMEQVAHQTMVMQFILELAKSLKVDPRACFRQFFTKIKTADHQYMEGFKYELEAFKERVRGRAKLRIEKAMKEYEEEERKKRLGPGGLDPVEVYESLPEELQKCFDVKDVQMLQDAISKMDPTDAKYHMQRCIDSGLWVPNSKSGEAKEGEEAGPGDPLLEAVPKAGNEKDVSA
# Target: Flag-P (MOKV) (Mokola virus (RV4))
# Experiment: co-IP
binder,measurement,value
B1,binding,binds
